{"sequences": {"note": "Sequences of proteins named here, by UniProt entry; tags and fusion partners are left off.", "UniProt Q92905": "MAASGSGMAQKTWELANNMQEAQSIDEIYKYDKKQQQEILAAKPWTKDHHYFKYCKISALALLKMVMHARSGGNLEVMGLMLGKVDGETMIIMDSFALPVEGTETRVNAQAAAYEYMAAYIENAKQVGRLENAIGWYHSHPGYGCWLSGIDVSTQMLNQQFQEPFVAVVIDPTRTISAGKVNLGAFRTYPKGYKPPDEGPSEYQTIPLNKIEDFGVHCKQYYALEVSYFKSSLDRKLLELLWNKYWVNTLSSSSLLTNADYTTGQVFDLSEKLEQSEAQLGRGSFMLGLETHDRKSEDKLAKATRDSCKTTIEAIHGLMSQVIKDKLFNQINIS", "UniProt Q00987": "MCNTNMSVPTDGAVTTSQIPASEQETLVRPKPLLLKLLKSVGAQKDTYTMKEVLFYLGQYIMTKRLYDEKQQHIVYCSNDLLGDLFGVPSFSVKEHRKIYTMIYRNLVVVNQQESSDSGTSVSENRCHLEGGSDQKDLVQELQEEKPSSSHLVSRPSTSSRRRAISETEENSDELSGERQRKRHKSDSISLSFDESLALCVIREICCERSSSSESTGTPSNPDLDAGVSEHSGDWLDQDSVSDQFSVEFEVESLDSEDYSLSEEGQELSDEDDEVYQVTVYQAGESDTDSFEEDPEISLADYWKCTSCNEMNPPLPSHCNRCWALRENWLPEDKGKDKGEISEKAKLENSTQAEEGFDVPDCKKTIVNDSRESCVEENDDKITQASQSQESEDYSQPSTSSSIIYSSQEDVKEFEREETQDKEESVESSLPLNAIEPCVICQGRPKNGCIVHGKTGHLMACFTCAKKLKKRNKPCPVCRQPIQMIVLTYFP", "UniProt Q9HCE7": "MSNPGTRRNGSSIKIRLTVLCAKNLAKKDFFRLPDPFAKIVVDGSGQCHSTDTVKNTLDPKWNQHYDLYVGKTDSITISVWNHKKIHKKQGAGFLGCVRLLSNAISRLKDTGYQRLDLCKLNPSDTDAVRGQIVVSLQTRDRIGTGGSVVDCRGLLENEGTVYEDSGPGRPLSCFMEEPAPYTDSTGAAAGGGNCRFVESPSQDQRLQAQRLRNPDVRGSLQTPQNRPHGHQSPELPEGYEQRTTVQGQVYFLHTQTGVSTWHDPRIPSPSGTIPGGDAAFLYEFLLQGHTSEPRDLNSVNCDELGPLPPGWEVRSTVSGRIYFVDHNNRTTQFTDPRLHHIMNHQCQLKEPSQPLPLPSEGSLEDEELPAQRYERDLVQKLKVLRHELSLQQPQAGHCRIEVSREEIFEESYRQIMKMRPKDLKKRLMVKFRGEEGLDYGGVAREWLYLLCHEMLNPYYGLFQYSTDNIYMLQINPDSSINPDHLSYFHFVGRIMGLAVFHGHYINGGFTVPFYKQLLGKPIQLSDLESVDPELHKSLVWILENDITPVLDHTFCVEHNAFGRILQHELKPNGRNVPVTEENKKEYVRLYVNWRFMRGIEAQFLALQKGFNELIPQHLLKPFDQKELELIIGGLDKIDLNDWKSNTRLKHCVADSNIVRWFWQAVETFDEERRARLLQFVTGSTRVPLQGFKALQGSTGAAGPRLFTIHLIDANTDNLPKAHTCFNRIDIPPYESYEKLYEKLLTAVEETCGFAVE", "UniProt Q86TM6": "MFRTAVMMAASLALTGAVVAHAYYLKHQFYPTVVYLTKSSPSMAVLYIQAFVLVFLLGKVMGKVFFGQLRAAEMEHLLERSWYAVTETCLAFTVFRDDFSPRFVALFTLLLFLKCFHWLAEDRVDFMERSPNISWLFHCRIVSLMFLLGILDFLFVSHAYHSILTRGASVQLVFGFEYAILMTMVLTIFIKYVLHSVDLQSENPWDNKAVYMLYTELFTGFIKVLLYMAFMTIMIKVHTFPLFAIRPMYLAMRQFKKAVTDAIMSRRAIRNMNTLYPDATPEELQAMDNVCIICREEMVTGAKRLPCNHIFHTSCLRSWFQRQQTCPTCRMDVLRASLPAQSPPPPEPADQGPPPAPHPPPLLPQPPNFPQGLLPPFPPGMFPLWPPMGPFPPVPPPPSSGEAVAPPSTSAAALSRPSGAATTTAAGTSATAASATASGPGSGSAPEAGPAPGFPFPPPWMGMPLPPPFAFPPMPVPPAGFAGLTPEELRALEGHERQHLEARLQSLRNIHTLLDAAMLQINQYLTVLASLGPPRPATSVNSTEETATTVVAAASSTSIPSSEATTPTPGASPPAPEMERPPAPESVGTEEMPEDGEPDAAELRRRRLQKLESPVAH"}, "source": "paper PMC8935229", "molecular_target": "T1, Zinc finger E-box-binding homeobox 1 (human (endogenous in MDA-MB-231)) (UniProt P37275)", "T1 sequence": "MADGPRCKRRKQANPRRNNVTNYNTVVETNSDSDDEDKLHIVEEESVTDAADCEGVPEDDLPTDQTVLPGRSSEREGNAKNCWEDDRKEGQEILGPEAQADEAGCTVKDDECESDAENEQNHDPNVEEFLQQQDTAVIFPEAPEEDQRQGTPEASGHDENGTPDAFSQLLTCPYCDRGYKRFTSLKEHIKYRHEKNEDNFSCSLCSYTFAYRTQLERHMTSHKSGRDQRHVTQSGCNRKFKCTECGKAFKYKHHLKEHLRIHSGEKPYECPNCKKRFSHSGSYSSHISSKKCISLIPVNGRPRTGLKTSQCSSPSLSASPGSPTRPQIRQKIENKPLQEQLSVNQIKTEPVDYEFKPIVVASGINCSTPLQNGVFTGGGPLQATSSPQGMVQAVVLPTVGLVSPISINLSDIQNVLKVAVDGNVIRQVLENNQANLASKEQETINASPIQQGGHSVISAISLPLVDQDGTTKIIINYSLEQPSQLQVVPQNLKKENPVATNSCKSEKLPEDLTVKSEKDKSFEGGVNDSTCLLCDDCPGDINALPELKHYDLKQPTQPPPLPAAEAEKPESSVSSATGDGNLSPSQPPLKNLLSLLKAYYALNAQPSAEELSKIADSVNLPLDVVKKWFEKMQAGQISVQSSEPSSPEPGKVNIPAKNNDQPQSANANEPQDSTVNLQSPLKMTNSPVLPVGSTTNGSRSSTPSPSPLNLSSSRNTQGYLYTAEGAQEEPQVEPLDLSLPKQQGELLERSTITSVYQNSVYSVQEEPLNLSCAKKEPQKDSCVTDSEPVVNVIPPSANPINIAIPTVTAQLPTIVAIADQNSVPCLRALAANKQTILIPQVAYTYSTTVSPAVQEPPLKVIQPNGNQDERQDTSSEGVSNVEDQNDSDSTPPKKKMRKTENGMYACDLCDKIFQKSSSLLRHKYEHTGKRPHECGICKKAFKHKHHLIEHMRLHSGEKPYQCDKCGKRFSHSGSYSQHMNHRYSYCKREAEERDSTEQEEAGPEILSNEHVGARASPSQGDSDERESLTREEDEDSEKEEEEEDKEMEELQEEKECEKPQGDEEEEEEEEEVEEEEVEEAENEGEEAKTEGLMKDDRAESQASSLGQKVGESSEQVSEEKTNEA", "assay": "co-IP; extracts (RIPA buffer) of MDA-MB-231, shRNA-NC and shRNA-SENP1 MDA-MB-231 cells; immunoprecipitation with anti-ZEB1 or anti-IgG antibody overnight at 4 °C, protein A/G agarose; immunoblot for the partners", "note": "These are yes or no findings as the source states them, for the method shown. Binding seen in cells or lysates may run through a third protein. Some entries that bind do so weakly or less than the wild type.", "data": [{"molecule": "COP9 signalosome complex subunit 5 (from UniProt Q92905 1-334) (enzyme)", "values": [{"measurement": "binding", "result": "binds"}]}, {"molecule": "MDM2 (from UniProt Q00987 1-491) (enzyme)", "values": [{"measurement": "binding", "result": "binds"}]}, {"molecule": "SMURF1 (from UniProt Q9HCE7 1-757) (enzyme)", "values": [{"measurement": "binding", "result": "binds"}]}, {"molecule": "SYVN1 (from UniProt Q86TM6 1-617) (enzyme)", "values": [{"measurement": "binding", "result": "binds"}]}, {"molecule": "USP51 (enzyme, UniProt Q70EK9 1-711) MAQVRETSLPSGSGVRWISGGGGGASPEEAVEKAGKMEEAAAGATKASSRREAEEMKLEPLQEREPAPEENLTWSSSGGDEKVLPSIPLRCHSSSSPVCPRRKPRPRPQPRARSRSQPGLSAPPPPPARPPPPPPPPPPPAPRPRAWRGSRRRSRPGSRPQTRRSCSGDLDGSGDPGGLGDWLLEVEFGQGPTGCSHVESFKVGKNWQKNLRLIYQRFVWSGTPETRKRKAKSCICHVCSTHMNRLHSCLSCVFFGCFTEKHIHKHAETKQHHLAVDLYHGVIYCFMCKDYVYDKDIEQIAKETKEKILRLLTSTSTDVSHQQFMTSGFEDKQSTCETKEQEPKLVKPKKKRRKKSVYTVGLRGLINLGNTCFMNCIVQALTHIPLLKDFFLSDKHKCIMTSPSLCLVCEMSSLFHAMYSGSRTPHIPYKLLHLIWIHAEHLAGYRQQDAHEFLIAILDVLHRHSKDDSGGQEANNPNCCNCIIDQIFTGGLQSDVTCQACHSVSTTIDPCWDISLDLPGSCATFDSQNPERADSTVSRDDHIPGIPSLTDCLQWFTRPEHLGSSAKIKCNSCQSYQESTKQLTMKKLPIVACFHLKRFEHVGKQRRKINTFISFPLELDMTPFLASTKESRMKEGQPPTDCVPNENKYSLFAVINHHGTLESGHYTSFIRQQKDQWFSCDDAIITKATIEDLLYSEGYLLFYHKQGLEKD", "values": [{"measurement": "binding", "result": "binds"}]}]}
